The record followed here is the supplement of paper PMC11006884.

Compound in this assay: COC(=O)C#Cc1ccccc1 [methyl 3-phenylpropiolate]
Briefly: log2 ratio of iodoacetamide-alkyne labeling of the cysteine site, DMSO over compound (competition); higher = stronger covalent engagement of the cysteine by the compound, active = 1 or more. As to conditions: 500 µM; treatment time 1 h; system: HEK293T cell lysate. A digest of the protocol:
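For each cysteine, the log2 competition ratio is mean control-channel reporter intensity over mean compound-channel reporter intensity. HEK293T lysate (2 mg/mL) was exposed to vehicle or electrophile (500 µM, 1 h, ambient temperature), labelled with iodoacetamide alkyne (1 h), clicked to sCIP-TMT reagents, digested overnight with trypsin at 37 °C, streptavidin-enriched and analysed by Orbitrap Eclipse LC-MS/MS with FAIMS and FragPipe. Cysteines quantified in only one of three replicates, each with duplicate channels, were excluded.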

This is a selection; strong and weak results do not stand in their true shares.

For the target MPP1 C242 (UniProt Q00013), the “log2 ratio of iodoacetamide-alkyne labeling” value (shortened to “log2 ratio”) is inactive: 0.479.

As for EIF4G2 C253 (UniProt P78344), the “log2 ratio” value is inactive: 0.674.

In the case of UniProt Q00341_C948, the “log2 ratio” value was inactive: 0.167.

Regarding PURA C292 (UniProt Q00577), the “log2 ratio” value was inactive: 0.202.

GTF2B C15 (UniProt Q00403): the “log2 ratio” value is inactive: 0.155.

Consider UniProt P62888_C92, for which the “log2 ratio” value was inactive: 0.756.

PFKP C360 (UniProt Q01813): the “log2 ratio” value is inactive: 0.656.

Turning to UniProt P62316_C63, the “log2 ratio” value is inactive: 0.416.

For the target UniProt P62258_C98, the “log2 ratio” value was inactive: 0.0722.

Consider PPIA C161 (UniProt P62937), for which the “log2 ratio” value is inactive: -0.0423.

Regarding UniProt P62280_C60, the “log2 ratio” value is active: 2.21.

Consider EIF4G2 C255 (UniProt P78344), for which the “log2 ratio” value is inactive: 0.391.

On to SKP1 C160 (UniProt P63208), for which the “log2 ratio” value was inactive: 0.0891.

Take UniProt P98164_C4047: the “log2 ratio” value is inactive: 0.464.

Take PAFAH1B2 C188 (UniProt P68402): the “log2 ratio” value was inactive: -0.139.

EXOSC10 C83 (UniProt Q01780): the “log2 ratio” value is inactive: 0.397.

As to UniProt P78527_C1312, the “log2 ratio” value is inactive: 0.0987.

Regarding UniProt P78527_C3281, the “log2 ratio” value was inactive: 0.287.

UniProt P63167_C24: the “log2 ratio” value was inactive: 0.134.

Regarding FOXK2 C210 (UniProt Q01167), the “log2 ratio” value was inactive: -0.0804.

Turning to UniProt P62873_C317, the “log2 ratio” value was inactive: 0.0711.

Turning to MRPS11 C112 (UniProt P82912), the “log2 ratio” value is inactive: 0.115.

Regarding CNBP C161 (UniProt P62633), the “log2 ratio” value was inactive: 0.05.

Regarding OGDH C802 (UniProt Q02218), the “log2 ratio” value was inactive: -0.0839.

Consider UniProt P84095_C157, for which the “log2 ratio” value is inactive: 0.279.

With XIAP C202 (UniProt P98170), the “log2 ratio” value is inactive: 0.117.

On to UniProt P62917_C115, for which the “log2 ratio” value was inactive: 0.195.

As to CNBP C158 (UniProt P62633), the “log2 ratio” value is inactive: 0.138.

On to CLTC C1102 (UniProt Q00610), for which the “log2 ratio” value is inactive: -0.0118.

On to UniProt P62913_C72, for which the “log2 ratio” value was inactive: -0.165.

Take UniProt P84090_C33: the “log2 ratio” value was inactive: -0.105.

For the target HNRNPU C607 (UniProt Q00839), the “log2 ratio” value was inactive: 0.39.

On to FABP5 C127 (UniProt Q01469), for which the “log2 ratio” value is inactive: -0.0938.

As to UniProt P84103_C10, the “log2 ratio” value was inactive: -0.0111.

For the target HMGCS1 C12 (UniProt Q01581), the “log2 ratio” value was inactive: -0.00842.

As for AMPD2 C310 (UniProt Q01433), the “log2 ratio” value was inactive: 0.446.

Turning to UniProt Q00341_C683, the “log2 ratio” value is inactive: -0.0455.
